Some entries share one result that the patent states for a list of compounds.
Columns and labels:
Type in all cases: in vivo
Tetranychus urticae = Tetranychus urticae (two-spotted spider mite) bean leaf disc spray test; conditions: 200 ppm spray on bean leaf discs, mixed-age mite populations, 8 days; egg, larval and adult mortality
Heliothis virescens = Heliothis virescens (tobacco budworm) egg/larva test on artificial diet; conditions: 200 ppm (concentration in well 18 ppm), eggs 0-24 h old on artificial diet, 4 days; egg mortality, larval mortality, growth regulation
Diabrotica balteata = Diabrotica balteata (corn root worm) larva test on artificial diet; conditions: 200 ppm (concentration in well 18 ppm), L2 larvae, 5 days, larval mortality, growth regulation
Spodoptera littoralis = Spodoptera littoralis (Egyptian cotton leafworm) leaf disc spray test; conditions: 200 ppm spray on cotton leaf discs, L1 larvae, mortality, feeding behavior, growth regulation 3 days after treatment
Thrips tabaci = Thrips tabaci (onion thrips) sunflower leaf disc spray test; conditions: 200 ppm spray on sunflower leaf discs, mixed-age population, 7 days; mortality
Plutella xylostella = Plutella xylostella (diamond back moth) larva test on artificial diet; conditions: 200 ppm (concentration in well 18 ppm), L2 larvae, 6 days, larval mortality, growth regulation

Cc1cc(C2=NCC(c3cc(Cl)cc(Cl)c3)(C(F)(F)F)C2)ccc1C(=O)NCC1CSC1 (stereo not drawn) [Compound E5, 4-[4-(3,5-Dichloro-phenyl)-4-trifluoromethyl-4,5-dihydro-3H-pyrrol-2-yl]-2-methyl-N-thietan-3-ylmethyl-benzamide]
at least 80%: control of Tetranychus urticae (Tetranychus urticae) | control of Heliothis virescens (Heliothis virescens) | control of Diabrotica balteata (Diabrotica balteata) | control of Spodoptera littoralis (Spodoptera littoralis) | control of Thrips tabaci (Thrips tabaci) | control of Plutella xylostella (Plutella xylostella)

Cc1cc(C2=NCC(c3cc(Cl)cc(Cl)c3)(C(F)(F)F)C2)ccc1C(=O)NC(=O)C1CSC1 (stereo not drawn) [Compound E4, 4-[4-(3,5-Dichloro-phenyl)-4-trifluoromethyl-4,5-dihydro-3H-pyrrol-2-yl]-2-methyl-N-(1-oxo-1-thietan-3-ylmethyl)-benzamide]
at least 80%: control of Tetranychus urticae (Tetranychus urticae) | control of Heliothis virescens (Heliothis virescens) | control of Diabrotica balteata (Diabrotica balteata) | control of Spodoptera littoralis (Spodoptera littoralis) | control of Thrips tabaci (Thrips tabaci) | control of Plutella xylostella (Plutella xylostella)

Cc1cc(C2=NOC(c3cc(Cl)cc(Cl)c3)(C(F)(F)F)C2)ccc1C(=O)NCC1CSC1 (stereo not drawn) [Compound A130, 4-[5-(3,5-dichlorophenyl)-5-(trifluoromethyl)-4H-isoxazol-3-yl]-2-methyl-N-(thietan-3-ylmethyl)benzamide]
at least 80%: control of Tetranychus urticae (Tetranychus urticae) | control of Heliothis virescens (Heliothis virescens) | control of Diabrotica balteata (Diabrotica balteata) | control of Spodoptera littoralis (Spodoptera littoralis) | control of Thrips tabaci (Thrips tabaci) | control of Plutella xylostella (Plutella xylostella)

Cc1cc(C2=NCC(c3cc(Cl)c(Cl)c(Cl)c3)(C(F)(F)F)C2)ccc1C(=O)NCC1CCS1 (stereo not drawn) [Compound E9, 2-Methyl-N-thietan-2-ylmethyl-4-[4-(3,4,5-trichloro-phenyl)-4-trifluoromethyl-4,5-dihydro-3H-pyrrol-2-yl]-benzamide]
at least 80%: control of Tetranychus urticae (Tetranychus urticae) | control of Heliothis virescens (Heliothis virescens) | control of Diabrotica balteata (Diabrotica balteata) | control of Spodoptera littoralis (Spodoptera littoralis) | control of Thrips tabaci (Thrips tabaci) | control of Plutella xylostella (Plutella xylostella)

Cc1cc(C2=NOC(c3cc(Cl)cc(Cl)c3)(C(F)(F)F)C2)ccc1C(=O)NCC1CS(=O)(=O)C1 (stereo not drawn) [Compound A132, 4-[5-(3,5-dichlorophenyl)-5-(trifluoromethyl)-4H-isoxazol-3-yl]-2-methyl-N-(1.1-dioxo-thietan-3-ylmethyl)benzamide]
at least 80%: control of Tetranychus urticae (Tetranychus urticae) | control of Heliothis virescens (Heliothis virescens) | control of Diabrotica balteata (Diabrotica balteata) | control of Spodoptera littoralis (Spodoptera littoralis) | control of Thrips tabaci (Thrips tabaci) | control of Plutella xylostella (Plutella xylostella)

Cc1cc(C2=NCC(c3cc(Cl)c(Cl)c(Cl)c3)(C(F)(F)F)C2)ccc1C(=O)NCC1CSC1 (stereo not drawn) [Compound E11, 2-Methyl-N-thietan-3-ylmethyl-4-[4-(3,4,5-trichloro-phenyl)-4-trifluoromethyl-4,5-dihydro-3H-pyrrol-2-yl]-benzamide]
at least 80%: control of Tetranychus urticae (Tetranychus urticae) | control of Heliothis virescens (Heliothis virescens) | control of Diabrotica balteata (Diabrotica balteata) | control of Spodoptera littoralis (Spodoptera littoralis) | control of Thrips tabaci (Thrips tabaci) | control of Plutella xylostella (Plutella xylostella)

— patent US10266524B2, “Process for the preparation of thietane derivatives” (SYNGENTA PARTICIPATIONS AG, priority 2011, dated 2019)
